Measured values: US20220098681A1
These are yes or no findings as the source states them, for the method shown. Binding seen in cells or lysates may run through a third protein. Some results given as binding are weak or reduced against the parent protein; the word gives no strength. For part of these data: Tags and fused reporters may be left off the sequences shown.

How the values were obtained:
[1] = target: FLAG-tagged CHIKV nsP3 (pCI-neo-3×FLAG plasmid expressing the CHIKV nsP3) (chikungunya virus) (UniProt Q8JUX6); test: co-immunoprecipitation
[2] = target: FLAG-tagged CHIKV nsP3 (pCI-neo-3×FLAG plasmid expressing the CHIKV nsP3) (chikungunya virus) (UniProt Q8JUX6); test: co-immunoprecipitation (data not shown)
[3] = target: FLAG-tagged CHIKV nsP3 (pCI-neo-3×FLAG plasmid expressing the CHIKV nsP3) (chikungunya virus) (UniProt Q8JUX6); test: summary of the co-immunoprecipitation and pull-down experiments

B1: FHL1A-R4* fusion protein (FHL1A fused to a randomized peptide sequence of HVD-R4) (protein)
chain: AEKFDCHYCRDPLQGKKYVQKDGHHCCLKCFDKFCANTCVECRKPIGADSKEVHYKNRFWHDTCFRCAKCLHPLANETFVAKDNKILCNKCTTREDSPKCKGCFKAIVAGDQNVEYKGTVWHKDCFTCSNCKQVIGTGSFFPKGEDFYCVTCHETKFAKHCVKCNKAITSGGITYQDQPWHADCFVCVTCSKKLAGQRFTAVEDQYYCVDCYKNFVAKKCAGCKNPITGFGKGSSVVAYEGQSWHDYCFHCKKCSVNLANKRFVFHQEQVYCPDCAKKL
B1 was tested, and the binding [1] was “binds”.

B2: murine FHL1 (protein)
chain: MSEKFDCHYCRDPLQGKKYVQKDGRHCCLKCFDKFCANTCVDCRKPISADAKEVHYKNRYWHDNCFRCAKCLHPLASETFVSKDGKILCNKCATREDSPRCKGCFKAIVAGDQNVEYKGTVWHKDCFTCSNCKQVIGTGSFFPKGEDFYCVTCHETKFAKHCVKCNKAITSGGITYQDQPWHAECFVCVTCSKKLAGQRFTAVEDQYYCVDCYKNFVAKKCAGCKNPITGFGKGSSVVAYEGQSWHDYCFHCKKCSVNLANKRFVFHNEQVYCPDCAKKL
For B2, the binding [2] was “binds”.

B3: endogenous FHL1 in 293T cells (protein)
chain: B1 chain
B3 was tested, and the binding [3] was “binds”.
